Measurements reported in PubChem BioAssay AID1508597 (Cure First, 2020).

Purpose: 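Knock-downs altering ovarian cancer cell survival with or without PARP inhibitor rucaparib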 (primary screen)
Cell system: human ovarian carcinoma lines grown from tumours: OCI-P5x (papillary serous) and OCI-C5x (clear cell)
Reagent: siRNA pool against human genes, 1.25 pmol siRNA per well
Duration: 72 h or 96 h, depending on the cell culture
Treatment: rucaparib 20 µM (about IC30) or vehicle, present until read-out
Rucaparib or vehicle: Rucaparib
Cell line: OCI-C5x (clear cell)
Measured: 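Luminescent ATP-based viability assay read 72 or 96 h after transfection, depending on culture, given as normalised percent viability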
Scale: viability, normalised: higher = more viable cells remaining
Call rule: 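a well counts as a hit if its normalised viability is under 80 percent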
Calls: active = viability under 80%; inactive = viability 80% or more
Shown is a random part of the about 2,100 reagents, under one of the conditions tested. 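Calls flag viability under 80% in either arm, not effects specific to rucaparib; the reference for percent is not stated.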 A number with no mark means an inactive call. Some reagents were tested in more than one well and are listed for each. Not stated in the record: the 100% reference.

| Gene | technical replicate | viability, normalised (%) |
| --- | --- | --- |
| DLG2 | 1 | 63.7 (active) |
| DLG2 | 2 | 64.7 (active) |
| DLG2 | 3 | 71.1 (active) |
| DCLRE1A | 1 | 57.1 (active) |
| DCLRE1A | 2 | 52.3 (active) |
| DCLRE1A | 3 | 65.7 (active) |
| JADE1 | 1 | 60.9 (active) |
| JADE1 | 2 | 57.4 (active) |
| JADE1 | 3 | 45.7 (active) |
| DCLK1 | 1 | 57.9 (active) |
| DCLK1 | 2 | 68.3 (active) |
| DCLK1 | 3 | 65.9 (active) |
| SNAI1 | 1 | 59.7 (active) |
| SNAI1 | 2 | 49.6 (active) |
| SNAI1 | 3 | 49.7 (active) |
| POU5F1 | 1 | 51 (active) |
| POU5F1 | 2 | 43.7 (active) |
| POU5F1 | 3 | 45.3 (active) |
| CDC7 | 1 | 58.9 (active) |
| CDC7 | 2 | 47.9 (active) |
| CDC7 | 3 | 57.8 (active) |
| PARP6 | 1 | 36.6 (active) |
| PARP6 | 2 | 34.7 (active) |
| PARP6 | 3 | 28.1 (active) |
| MAP4K2 | 1 | 60.4 (active) |
| MAP4K2 | 2 | 51.7 (active) |
| MAP4K2 | 3 | 61.8 (active) |
| BRD2 | 1 | 35.5 (active) |
| BRD2 | 1 | 40.3 (active) |
| BRD2 | 2 | 29.1 (active) |
| BRD2 | 2 | 57.5 (active) |
| BRD2 | 3 | 35.7 (active) |
| BRD2 | 3 | 32 (active) |
| TDRKH | 1 | 44.3 (active) |
| TDRKH | 2 | 53.8 (active) |
| TDRKH | 3 | 44.3 (active) |
| ARID5A | 1 | 48.6 (active) |
| ARID5A | 2 | 45.4 (active) |
| ARID5A | 3 | 39.1 (active) |
| MAP3K13 | 1 | 57.6 (active) |
| MAP3K13 | 1 | 37.8 (active) |
| MAP3K13 | 2 | 63.3 (active) |
| MAP3K13 | 2 | 62.8 (active) |
| MAP3K13 | 3 | 42.2 (active) |
| MAP3K13 | 3 | 69.1 (active) |
| HDAC5 | 1 | 39.8 (active) |
| HDAC5 | 2 | 48.4 (active) |
| HDAC5 | 3 | 48.4 (active) |
| DDX1 | 1 | 58.2 (active) |
| DDX1 | 1 | 44.6 (active) |
| DDX1 | 2 | 44.7 (active) |
| DDX1 | 2 | 40.1 (active) |
| DDX1 | 3 | 25.2 (active) |
| DDX1 | 3 | 54 (active) |
| ALK | 1 | 47.5 (active) |
| ALK | 2 | 46.6 (active) |
| ALK | 3 | 55 (active) |
| RPA4 | 1 | 57.9 (active) |
| RPA4 | 2 | 43.8 (active) |
| RPA4 | 3 | 44.6 (active) |
| STK40 | 1 | 51 (active) |
| STK40 | 2 | 57.3 (active) |
| STK40 | 3 | 58.7 (active) |
| CBX4 | 1 | 59.2 (active) |
| CBX4 | 2 | 43.9 (active) |
| CBX4 | 3 | 49.7 (active) |
| XRCC5 | 1 | 60.4 (active) |
| XRCC5 | 2 | 50.2 (active) |
| XRCC5 | 3 | 47.3 (active) |
| MLLT6 | 1 | 46.1 (active) |
| MLLT6 | 2 | 38.8 (active) |
| MLLT6 | 3 | 47.4 (active) |
| PRDM4 | 1 | 60.8 (active) |
| PRDM4 | 2 | 57.1 (active) |
| PRDM4 | 3 | 51.4 (active) |
